Test results: patent US4010193A, “Basic ester” (Chinoin Gyogyszer-es Vegyeszeti Termekek Gyara RT, priority 1972, dated 1977)
Structures can show the parent of a compound that is named as a salt. At least one read-out could not be matched to a standard name with certainty.

Tested on: isolated ischiadicus nerves
Assay: Local anaesthetic effect on isolated ischiadicus nerves of frogs
Details: frog nerve
Method: 4. Local anaesthetical effect The local anaesthetic effect being characteristic of the majority of antiarrhythmical agents is tested on isolated ischiadicus nerves of frogs. The dose reducing by 50% the amplitude of the action-potential induced by stimulation of the nerves is considered as the rate (ED50) of the local anaesthetic effect.

SMILES	Reduction of the amplitude of the action potential of ischiadicus nerves (0.1 mg/ml.)	Reduction of the amplitude of the action potential of ischiadicus nerves (0.5 mg/ml.)	Reduction of the amplitude of the action potential of ischiadicus nerves (5 mg/ml.)	Reduction of the amplitude of the action potential of ischiadicus nerves (1 mg/ml.)	Reduction of the amplitude of the action potential of ischiadicus nerves (2.5 mg/ml.)
COc1cc(C(=O)OCCNC(C)c2ccccc2)cc(OC)c1OC (stereo not drawn) [Compound 1, N-2-ethyl-1-phenyl-ethylamino-3,4,5,-trimethoxy-benzoate-hydrochloride]	37 /3/	48 /3/	83 /3/		
COc1cc(C(=O)OCCNC(C)C)cc(OC)c1OC [Compound 2]		47 /3/		58 /3/	79 /3/
COc1cc(C(=O)OCCNC2CCCCC2)cc(OC)c1OC [Compound 3, N-2-ethyl-cyclohexylamino-3,4,5-trimethoxy-benzoate-hydrochloride]	26 /3/	55 /3/		70 /3/	
